# Test results: PubChem BioAssay AID2551 (National Center for Advancing Translational Sciences (NCATS), 2010)
# Chains of the proteins cited; added tags and fusions are not shown. Lines headed by an entry give the natural chain unless they say otherwise; changes in a name come on top.
# UniProt P51450: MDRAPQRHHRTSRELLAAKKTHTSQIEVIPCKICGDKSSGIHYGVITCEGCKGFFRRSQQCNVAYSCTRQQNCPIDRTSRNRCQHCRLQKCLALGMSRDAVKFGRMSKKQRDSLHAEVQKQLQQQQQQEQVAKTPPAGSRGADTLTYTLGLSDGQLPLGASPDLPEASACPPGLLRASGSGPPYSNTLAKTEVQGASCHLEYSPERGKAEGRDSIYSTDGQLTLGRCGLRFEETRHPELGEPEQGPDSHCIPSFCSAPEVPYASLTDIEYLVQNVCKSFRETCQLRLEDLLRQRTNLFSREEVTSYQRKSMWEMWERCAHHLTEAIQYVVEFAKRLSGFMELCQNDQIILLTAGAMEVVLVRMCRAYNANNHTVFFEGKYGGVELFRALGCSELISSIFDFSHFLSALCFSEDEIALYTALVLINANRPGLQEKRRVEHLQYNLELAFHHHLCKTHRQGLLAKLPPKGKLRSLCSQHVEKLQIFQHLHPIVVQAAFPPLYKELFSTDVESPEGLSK
# About 17,000 (5.5%) of roughly 310,000 compounds were called active. The shares of active, inactive and inconclusive entries below differ from those in the screen. Calls follow the shape of the dose curve; as a rule, active = well fitted inhibition curve with a large enough effect; inconclusive = small, poorly fitted or top-dose-only effect, or effect the other way; inactive = no such curve, though single readings can be large or run the other way. Potencies beside an inconclusive call are fits to weak or partial responses and may not hold up.
# Target: Nuclear receptor ROR-gamma (Mus musculus) (UniProt P51450)
# Assay: qHTS for inhibitors of ROR gamma transcriptional activity; also: nearly all actives have a fitted effect of over 60% in size
# Conditions: Drosophila S2 Gal4-RORgamma UAS-luciferase reporter, 20 h; activity change, negative = inhibition: at 53.6 µM (top of the series)
# How it was run: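 Stable Schneider cell line, Gal4 DNA-binding domain fused to ROR gamma, UAS-luciferase. Cmpd 1 hr RT → CuSO4 700 uM final → 20 hr RT → luciferase reagent 10 min → luminescence.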
# % is scaled to controls: 0 for no effect and ±100 for the full control effect; potency is read from the fitted curve at half-maximal effect.
SMILES,Potency,"activity change, negative = inhibition"
CN(C)c1ccc(C(=S)N2CCCCC2)cc1,active: 11.2 µM,–
CCOc1ccccc1Nc1nnc(SCC(=O)NC(Cc2c[nH]c3ccccc23)C(=O)O)s1 (stereo not drawn),"inconclusive: 12.6 µM [inhibitor, single point]",–
COc1ccccc1N(Cc1ccccc1)S(=O)(=O)c1cccc(C(=O)Nc2ccccn2)c1,"inconclusive: 35.5 µM [inhibitor, single point]",–
Cc1ccc(NC(=O)CS(=O)CC(=O)N(C(C)C(=O)NC2CCCCC2)C(C)(C)C)cc1 (stereo not drawn),–,inactive: 21.9%
Cn1ncc(Cl)c1C(=O)NC(=S)Nc1sc2c(c1C#N)CCCCC2,active: 11.2 µM,–
CCNc1ncc2nc(C)c(=O)n(Cc3cccc(OC)c3)c2n1,"inconclusive: 2.51 µM [inhibitor, full curve]",–
O=C1COc2ccc(-c3csc(NCC4CCCO4)n3)cc2N1 (stereo not drawn),"inconclusive: 22.4 µM [inhibitor, single point]",–
C=CCN1CCN(C(c2ccc(Cl)cc2)c2nnnn2CCc2ccc(OC)c(OC)c2)CC1 (stereo not drawn),"inconclusive: 5.62 µM [activator, full curve]",–
Cc1onc(-c2ccccc2)c1C(=O)N/N=C/c1ccc([N+](=O)[O-])s1,active: 11.2 µM,–
Cc1nnc(NC(=O)c2sc3nc(-c4cccs4)cc(C(F)(F)F)c3c2N)s1,active: 3.98 µM,–
Cc1ccc(C)c(NC(=O)c2oc(=O)c3ccccc3c2-c2ccccc2)c1,"inconclusive: 14.1 µM [activator, partial curve]",–
Cc1c(NC(=O)/C=C/C(=O)O)cccc1[N+](=O)[O-],–,inactive: -4.11%
OCc1cnc(SCc2ccccc2)n1Cc1ccccc1,"inconclusive: 7.08 µM [inhibitor, full curve]",–
O=C(C1=C[C@H](C2CC2)C[C@H](OCc2ccc(CO)cc2)O1)N1CCN(Cc2ccc3c(c2)OCO3)CC1,"inconclusive: 7.94 µM [activator, partial curve]",–
CCOC(=O)C1(CCCc2ccccc2)CCN(S(=O)(=O)N(C)C)CC1,"inconclusive: 35.5 µM [activator, single point]",–
CC(C)CN(CC(C)C)C(=O)CCCC(=O)N(CC(C)C)CC(C)C,–,inactive: 8.77%
Cc1ccccc1C(OCCN(C(C)C)C(C)C)c1ccccc1 (stereo not drawn),–,inactive: -20.3%
Cc1cccc(C(=O)Oc2csc(=S)n2C(=O)c2cccc(C)c2)c1,"inconclusive: 35.5 µM [inhibitor, single point]",–
Cc1ccc(C(=O)NCCn2cc(SCC(=O)Nc3cc(C)on3)c3ccccc32)cc1,"inconclusive: 28.2 µM [inhibitor, single point]",–
COc1ccc(/C(C)=N/N=C(N)N)c(O)c1,–,inactive: -24.9%
CC(C)Oc1ccc(C(=O)NC(=S)Nc2ccc(CN3CCOCC3)cc2)cc1,active: 7.08 µM,–
C/C(=N/O)c1ccc2c(c1)OCCOCCOc1cc(/C(C)=N/O)ccc1OCCOCCO2,–,inactive: 41.4%

SMILES,Potency,"activity change, negative = inhibition"
FC(F)(F)Oc1ccc(NC(=S)Nc2ccc(OC(F)(F)F)cc2)cc1,"inconclusive: 35.5 µM [inhibitor, single point]",–
Cc1ccc(C)c(NC2=NCC(=O)N2c2ccc3c(c2)OCCO3)c1,"inconclusive: 2.51 µM [activator, partial curve, poor fit]",–
Clc1ccccc1CNCc1ccncc1,–,inactive: 6.92%
O=C1C[C@H]2[C@H](CO)[C@@H](OC(=O)c3ccc(-c4ccccc4)cc3)C[C@H]2O1,–,inactive: 23.7%
NC(=O)c1nsc(C(=O)N(Cc2ccc(F)cc2)C(C(=O)NCC2CCCO2)c2ccc(O)cc2)c1N (stereo not drawn),"inconclusive: 7.08 µM [activator, full curve, poor fit]",–
Cn1nc(C(F)(F)F)c(-c2ccc(F)cc2)c1NC(=O)Nc1ccc(F)cc1,"inconclusive: 35.5 µM [activator, single point]",–
c1ccc(Nc2c3c(nc4ncnn24)CCC3)cc1,–,inactive: -52.8%
CN(Cc1ccccc1)C(=O)Cn1c(=O)oc2cc(S(=O)(=O)N3CCCC3)ccc21,"inconclusive: 25.1 µM [inhibitor, single point]",–
O=C(CCc1ccc(S(=O)(=O)NC2CCCCC2)cc1)NCc1ccc(Cl)cc1,"inconclusive: 31.6 µM [inhibitor, single point]",–
CCOC(=O)COc1cc(-n2c(=S)[nH]c3cc(OC)c(OC)cc3c2=O)c(Cl)cc1Cl,"inconclusive: 35.5 µM [inhibitor, single point]",–
CCN(CC)CCCC(C)n1c(-c2ccccc2)nc2c(NCc3ccccc3)nc(C)nc21 (stereo not drawn),"inconclusive: 35.5 µM [inhibitor, single point]",–
Cc1cc(C(=O)CN2C(=O)NC3(CCCCC3C)C2=O)c(C)n1Cc1cccs1 (stereo not drawn),"inconclusive: 7.08 µM [activator, partial curve]",–
C/C(=N/Nc1ncc(C(F)(F)F)cc1Cl)c1ccncc1,"inconclusive: 35.5 µM [inhibitor, single point]",–
O=C(NC(=S)N1CCN(c2ccc([N+](=O)[O-])cc2)CC1)c1ccccc1Cl,active: 0.447 µM,–
O=C(CCCN1C(=O)C2C3C=CC(C3)C2C1=O)N1CCN(c2ccccc2)CC1 (stereo not drawn),"inconclusive: 3.55 µM [activator, partial curve, poor fit]",–
O=C(N/N=C/c1ccc(N2CCCCC2)o1)c1ccccc1[N+](=O)[O-],"inconclusive: 25.1 µM [inhibitor, single point]",–
O=C1c2ccccc2NC(c2cccc([N+](=O)[O-])c2)N1O (stereo not drawn),"inconclusive: 11.2 µM [inhibitor, single point]",–
CCC(CC)c1nnc(NC(=O)CCNC(=O)c2ccccc2Cl)s1,"inconclusive: 22.4 µM [activator, single point]",–
CCCCSc1oc(-c2ccco2)nc1S(=O)(=O)c1ccccc1,"inconclusive: 35.5 µM [activator, single point]",–
CC(C)c1ccc(/C=N/NC(=O)c2cc(-c3cccc([N+](=O)[O-])c3)n[nH]2)cc1,"inconclusive: 35.5 µM [inhibitor, single point]",–
CCc1ccc(C(=O)Nc2ccc(OC)c(S(=O)(=O)N3CCOCC3)c2)cc1,–,inactive: 9.79%

# A portion from further up, as a working copy:
SMILES,Potency,"activity change, negative = inhibition"
O=C(CCCN1C(=O)C2C3C=CC(C3)C2C1=O)N1CCN(c2ccccc2)CC1 (stereo not drawn),"inconclusive: 3.55 µM [activator, partial curve, poor fit]",–
O=C(N/N=C/c1ccc(N2CCCCC2)o1)c1ccccc1[N+](=O)[O-],"inconclusive: 25.1 µM [inhibitor, single point]",–
O=C1c2ccccc2NC(c2cccc([N+](=O)[O-])c2)N1O (stereo not drawn),"inconclusive: 11.2 µM [inhibitor, single point]",–
